B1: il10ra_site1_normal_mot_HHH_b1_02809_af2_000000277_0001_40_57_H_._HHH_b1_06102_0001_0000800008_0000001_1 (protein)
chain: SSSSDEEIRRKIRLALQFAKALLEAGDPEAARRIVRAALQVARKDGDPIAEEVEELLEEINSSSS
B2: il10ra_site1_sap_26_mot_HHH_b2_04681_000000155_0001_43_57_H_._HHH_b2_02614_0001_0000500019_0000001_0_0001 (protein)
chain: SSSEEEVEELVEEVRRVAEEVGDPEARVSARFHASLAEWALERNDEEALKQVSLALRIFLEVFSS
B3: il10ra_site1_sap_23_mot_0eddeacbb14b769e73e254714f31e2f9_0001_af2_000000127_0001_37_51_H_._HHH_b1_00538_0001_0000500024_0000001_0_0001 (protein)
chain: SSSSSEEEEKAKELIELLEELAKEGDPEEFNRVALEAVRLVLELGDAELLRELWELFKSVSSSSS
B4: il10ra_site1_normal_mot_8756ee2cf497b5429c717dfc0c0bcfd6_0001_000000186_0001_1_13_H_._HHH_b2_06836_af2_0001_0000500019_0000001_0 (protein)
chain: SSSSTEAQEVAELLREVVELARNGNPEEAREVLREAEEIAKEGNNDVLKVQVEYLARLIEGSSSS
B5: il10ra_site1_sap_12_mot_HHH_b2_07442_000000239_0001_40_54_H_._HHH_b1_05408_0001_0000100001_0000002_0_0001 (protein)
chain: SSSSSSDIEEEVKELLEEAKHVSADEAFELFKEAIELAVEGRDPELLREVMEVLREWLNSSSSSS
B6: il10ra_site1_normal_mot_HHH_b1_02997_000000220_0001_39_52_H_._HHH_b1_06600_0001_0000400038_0000001_0_af2pred_0001 (protein)
chain: SSSSSKREEAIELLREAAELLADGNPEEAEELLEEARRLAEEANNLILRIAIEFLLEQLESSSSS
B7: il10ra_site1_sap_19_mot_HHH_b1_04015_af2_000000074_0001_1_17_H_._HHH_b1_08661_af2_0001_0000100003_0000001_0_0001_af2pred_dldesign_0_af2pred (protein)
chain: SSSREELWKAMVEVYKKATSSGDPEVIKKAEELLKRAATALAQEDEEAIAEVLKELKAFIEEVSS
B8: il10ra_site1_sap_23_mot_HHH_b2_02354_af2_000000157_0001_40_56_H_._HHH_b2_04501_af2_0001_0000800021_0000001_0_0001 (protein)
chain: SSSSDELEELLEELEEALERGDQELFAELALEVVHLAWQNGDEEVLRRVWELVEEFRRAHSSSSS
B9: il10ra_site1_normal_mot_HHH_b2_00475_000000107_0001_44_57_H_._HHH_b1_03844_0001_0000100010_0000001_0_af2pred_0001 (protein)
chain: SSSSDEERVVELLKRALELARNGNPEEAEELLEEAEQIARENNDEELRERIELAERLVRQESSSS
B10: il10ra_site1_sap_21_mot_HHH_b1_06789_af2_000000041_0001_1_20_H_._HHH_b1_00764_0001_0000200005_0000001_0_0001 (protein)
chain: SSSSDEDEELLEAAKRLIEQALKWGDPEAAKILIWSAKFLAEELGDEETQEELEELEKEVDSSSS
B11: il10ra_site1_normal_mot_HHH_b2_04275_000000272_0001_20_36_H_._HHH_b1_03080_0001_0000100004_0000001_1 (protein)
chain: SSSSDSQELYELLEKASELLHRGNPEEAKKVLEEAEEIAREANNEVLLFTIEFLLELVERHSSSS
B12: il10ra_site1_sap_16_mot_HHH_b2_03220_af2_000000223_0001_23_40_H_._HHH_b1_00394_0001_0000100012_0000002_0_0001 (protein)
chain: SSSSSTIEWSVKFVLEVAEMNAREGDPERARYQLEALLEHLRQAGNEELAEEVEHLLEELSSSSS
B13: il10ra_site1_sap_22_mot_HHH_b2_00952_af2_000000228_0001_1_18_H_._HHH_b2_08075_af2_0001_0000100004_0000001_0_0001_af2pred_0001 (protein)
chain: SSSDEEEALERLLKAVERLIEQGDDELAKLSVHQVLHLAKFAGDEEIERRARELLKELEELSSSS
B14: il10ra_site1_normal_mot_HHH_b1_06994_000000193_0001_40_55_H_._HHH_b1_03771_af2_0001_0000300016_0000002_0 (protein)
chain: SSSSDEEKELLEAAERLIEQALENGNPETAKFLILAAKILAEELGDEETLKKLEELEEEVDSSSS
B15: il10ra_site1_sap_10_mot_HHH_b2_03438_af2_000000049_0001_18_34_H_._HHH_b2_06719_0001_0000400025_0000002_0_0001_af2pred_0001 (protein)
chain: SSSSSEEDIERAVRRLLEAAKLIPDPELRKLTLRFARFAAEENNDEELEKEVEEVEKRLESSSSS
B16: il10ra_site1_sap_21_mot_HHH_b2_02053_af2_000000006_0001_3_19_H_._HHH_b1_03521_0001_0000200013_0000001_1_0001 (protein)
chain: SSSSDERAQEALELSKEAFRAALRGNPEEAQELVEEALKVAEEAGDERLAEIIRSLLEAIRSSSS
B17: il10ra_site1_sap_12_mot_HHH_b1_05084_000000041_0001_41_57_H_._HHH_b1_01386_0001_0000100008_0000001_0_0001_af2pred_0001 (protein)
chain: SSSSSEEYAKRVAELSMRASAIPDEEERRKILEEAEEVAREGNDPRLELSVKVLIEFLERSSSSS
B18: il10ra_site1_sap_19_mot_HHH_b2_03425_000000200_0001_22_39_H_._HHH_b1_06430_0001_0000100004_0000001_0_0001_af2pred_dldesign_0_af2pred (protein)
chain: SSSSDIEALLKELARLSHEVSEEQRAKLFDAMVEAYRLYQQGKPEEARRVLEEAIAEALESSSSS
B19: il10ra_site1_normal_mot_HHH_b2_07540_000000184_0001_1_15_H_._HHH_b2_02537_0001_0000100004_0000001_0 (protein)
chain: SSSSDEEYEEVKRLIEEITELLRRGDPEEARRLLEELEELAEETNNPAARFSVRALERAINSSSS

The list shows a part of the results.

This test deals with il10ra, Q13651. Briefly: yeast display titration.
Regarding B1, the “apparent Kd” value was “inactive: no binding seen”. For the molecule B2, the “apparent Kd” value was “inactive: no binding seen”. Consider B3, for which the “apparent Kd” value is “inactive: no binding seen”. B4: the “apparent Kd” value is “inactive: no binding seen”. Regarding B5, the “apparent Kd” value is “inactive: no binding seen”.

Consider B6, for which the “apparent Kd” value is “inactive: no binding seen”. For the molecule B7, the “apparent Kd” value was “inactive: no binding seen”.

As to B8, the “apparent Kd” value was “inactive: no binding seen”. In the case of B9, the “apparent Kd” value is “inactive: no binding seen”. The result for B10 reads “inactive: no binding seen”; that for B11, “inactive: no binding seen”. With B12 the entry was “inactive: no binding seen”. Turning to B13, the “apparent Kd” value is “inactive: no binding seen”. The result for B14 reads “inactive: no binding seen”.

As for B15, the “apparent Kd” value is “inactive: no binding seen”. As for B16, the “apparent Kd” value is “inactive: no binding seen”.

For the molecule B17, the “apparent Kd” value is “inactive: no binding seen”. The result for B18 reads “inactive: no binding seen”.

Regarding B19, the “apparent Kd” value was “inactive: no binding seen”.
